Source: PubChem BioAssay AID214 (DTP/NCI, 2004)
The list is a part of this screen's results and no random one: it covers a few groups of compounds. Not every dose and run of a compound is shown. T/C gives the treated animals as a percentage of the vehicle group. Schedule codes are those of the source, taken here to give the interval after Q, in days (D) or hours (H), and the number of doses after X. Some entries show no survivor count and are marked so; the dose need not have been tolerated.

Test system: B6C3F1 mice, colon carcinoma 38 s.c., T/C
Assay: NCI In Vivo Anticancer Drug Screen. Data for tumor model Colon Carcinoma 38 (subcutaneous) in B6C3F1 mice
Settings: T/C endpoint: median tumor weight (est.), schedule: Q07DX002 (ip), vehicle: Klucel (hydroxypropylcellulose) (HPC), evaluated on day 20, higher T/C = larger tumour
Description: The antitumor activity of compounds was measured in mice bearing transplantable tumors. Survival or tumor size were measured and the results are expressed as the measurement made in the treated group (T) divided by the measurement made in the vehicle treated control group (C). The tumor model used in this assay is Colon Carcinoma 38 (subcutaneous) in B6C3F1 mice

## CC1=C[C@H]2O[C@@H]3C[C@H]4OC(=O)/C=C\C=C\C(C(C)O)OCC(O)C(C)CC(=O)OC[C@@]2(C[C@@H]1O)[C@]4(C)[C@@]31CO1 (some centres undefined)
dose: 0.5 mg/kg/injection
  T/C: 89 % of control [survivor count not shown]
dose: 1.0 mg/kg/injection
  T/C: 109 % of control [survivor count not shown]
dose: 2.0 mg/kg/injection
  T/C: 103 % of control [survivor count not shown]
dose: 4.0 mg/kg/injection
  T/C: 94 % of control [survivor count not shown]
